Assay results reported in publication PMC7862700.
The entries are a selection whose mix differs from that of the whole data set. At the low end of the ranking the order means little.

Chains of the proteins cited; added tags and fusions are not shown. Lines headed by an entry give the natural chain unless they say otherwise; changes in a name come on top.
UniProt Q01892: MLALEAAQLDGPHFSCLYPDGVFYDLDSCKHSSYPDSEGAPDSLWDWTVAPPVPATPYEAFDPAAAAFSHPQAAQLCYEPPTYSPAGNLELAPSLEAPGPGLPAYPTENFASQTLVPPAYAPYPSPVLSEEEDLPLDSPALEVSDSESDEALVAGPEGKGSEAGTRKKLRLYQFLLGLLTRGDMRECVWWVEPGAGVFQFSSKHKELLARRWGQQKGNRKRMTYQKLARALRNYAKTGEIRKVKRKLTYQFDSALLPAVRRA

Target: T1, EHF (UniProt Q9NZC4)
T1 sequence: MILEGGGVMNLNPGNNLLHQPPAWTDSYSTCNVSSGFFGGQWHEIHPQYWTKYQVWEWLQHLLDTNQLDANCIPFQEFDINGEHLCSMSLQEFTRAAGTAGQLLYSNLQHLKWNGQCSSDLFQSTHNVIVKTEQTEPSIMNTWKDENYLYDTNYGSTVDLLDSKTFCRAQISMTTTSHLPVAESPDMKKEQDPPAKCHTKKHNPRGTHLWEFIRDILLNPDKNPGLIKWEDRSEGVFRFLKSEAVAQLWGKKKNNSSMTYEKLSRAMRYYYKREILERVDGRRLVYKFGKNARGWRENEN
Experiment: DAPPL (digital affinity profiling via proximity ligation, sequencing)
Settings: 10 mM Tris-HCl pH 7.5, 50 mM NaCl, 1 mM DTT, 4% glycerol, room temperature, 30 min; GST-TFs on glutathione beads, 16-mer random dsDNA library, 0.1% …; high values mean tight binding; double strand, one strand shown; scale: fold enrichment (6-mer frequency, TF over GST control)

With AGTACA as the sequence, how does the binding signal read?
Its binding signal is 1.13.

TATGAC was tested. Which binding signal did it give?
The binding signal was 1.23.

ACTATG was tested. Which binding signal did it give?
Its binding signal is 1.25.

With CCATAC as the sequence, how does the binding signal read?
Its binding signal is 1.19.

GGACCT was tested. Which binding signal did it give?
Its binding signal is 1.35.

With CGCGTA as the sequence, how does the binding signal read?
The binding signal was 0.987.

GCCCAA was tested. Which binding signal did it give?
The binding signal was 1.

For AGTGTT, which binding signal is on record?
The binding signal was 1.02.

Which binding signal does the source give for TGTTCC here?
The binding signal was 1.83.

How did the binding signal turn out when ACTATA was run?
The binding signal was 1.29.

How did the binding signal turn out when TTCCTA was run?
The binding signal was 1.59.

Which binding signal does the source give for CCACAT here?
Its binding signal is 1.21.

How did the binding signal turn out when AAGTGT was run?
The binding signal was 1.24.

For ATTGGC, which binding signal is on record?
Its binding signal is 1.15.

How did the binding signal turn out when AGTGCC was run?
The binding signal was 0.974.

Which binding signal does the source give for ACGATA here?
Its binding signal is 1.15.

Target: SPIB (UniProt Q01892)
Experiment: as above
Settings: 10 mM Tris-HCl pH 7.5, 50 mM NaCl, 1 mM DTT, 4% glycerol, room temperature, 30 min; GST-TFs on glutathione beads, 16-mer random dsDNA library, 0.1% …; high values mean tight binding; double strand, one strand shown; scale: fold enrichment (6-mer frequency, TF over GST control)

AGTACA was tested. Which binding signal did it give?
The binding signal was 1.07.

How did the binding signal turn out when TAACTG was run?
Its binding signal is 1.33.

With TATGAC as the sequence, how does the binding signal read?
Its binding signal is 1.4.

Which binding signal does the source give for AAGTAG here?
The binding signal was 1.13.

CACAAC was tested. Which binding signal did it give?
Its binding signal is 1.23.

With TAGATC as the sequence, how does the binding signal read?
Its binding signal is 0.983.

How did the binding signal turn out when TAGCAG was run?
The binding signal was 0.979.

For CGGCAT, which binding signal is on record?
Its binding signal is 1.19.

Which binding signal does the source give for AAGTGC here?
Its binding signal is 1.34.

For TGTAAC, which binding signal is on record?
The binding signal was 1.16.

For TTCTTG, which binding signal is on record?
Its binding signal is 1.39.

TGTGGC was tested. Which binding signal did it give?
The binding signal was 1.09.

How did the binding signal turn out when AATATT was run?
The binding signal was 1.34.

With AGTGTT as the sequence, how does the binding signal read?
The binding signal was 1.15.

CTATCC was tested. Which binding signal did it give?
The binding signal was 1.4.

AAACCG was tested. Which binding signal did it give?
Its binding signal is 1.05.

How did the binding signal turn out when TGTTCC was run?
The binding signal was 1.8.

How did the binding signal turn out when GCTTGG was run?
Its binding signal is 1.16.

Which binding signal does the source give for ACTATA here?
Its binding signal is 1.28.

With TGCGAA as the sequence, how does the binding signal read?
The binding signal was 1.22.

How did the binding signal turn out when ACCTGA was run?
The binding signal was 1.1.

With TTCCTA as the sequence, how does the binding signal read?
Its binding signal is 1.93.

Which binding signal does the source give for CCGGTC here?
Its binding signal is 1.08.

For CCCACC, which binding signal is on record?
The binding signal was 1.13.

For CTTAAT, which binding signal is on record?
The binding signal was 1.3.

How did the binding signal turn out when CTTTGG was run?
Its binding signal is 1.04.

TGACAT was tested. Which binding signal did it give?
Its binding signal is 1.19.

Which binding signal does the source give for ACGAAA here?
Its binding signal is 1.16.

ACCTGG was tested. Which binding signal did it give?
The binding signal was 1.31.

Which binding signal does the source give for CCTTCC here?
The binding signal was 2.75.

For ATTGGC, which binding signal is on record?
The binding signal was 1.13.

Which binding signal does the source give for ACGATA here?
Its binding signal is 1.23.
